Measurements from publication PMC5520720.
No constants are given. Whether binding was seen depends on the method and setting. Binding seen in cells or lysates may run through a third protein. Here binding means that the protein was enriched with, or labelled near, the bait; the list need not be complete. Where a sequence is shown, tags or fusion partners need not be part of it.

Chains of the proteins cited; added tags and fusions are not shown.
UniProt P25490: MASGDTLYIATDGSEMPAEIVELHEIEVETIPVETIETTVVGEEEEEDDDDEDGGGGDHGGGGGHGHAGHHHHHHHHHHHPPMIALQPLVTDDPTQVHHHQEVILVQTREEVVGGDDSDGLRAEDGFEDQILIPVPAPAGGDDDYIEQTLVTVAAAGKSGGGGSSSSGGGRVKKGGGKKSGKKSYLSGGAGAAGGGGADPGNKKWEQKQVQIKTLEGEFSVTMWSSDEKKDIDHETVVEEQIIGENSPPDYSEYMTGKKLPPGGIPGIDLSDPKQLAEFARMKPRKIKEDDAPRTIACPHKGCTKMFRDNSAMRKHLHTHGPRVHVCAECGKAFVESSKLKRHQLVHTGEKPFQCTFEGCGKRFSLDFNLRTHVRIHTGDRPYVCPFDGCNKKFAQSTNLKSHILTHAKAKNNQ

Molecular target: T1, N-myc and STAT interactor (NMI) (human (endogenous in human breast cancer cells)) (UniProt Q13287)
T1 sequence: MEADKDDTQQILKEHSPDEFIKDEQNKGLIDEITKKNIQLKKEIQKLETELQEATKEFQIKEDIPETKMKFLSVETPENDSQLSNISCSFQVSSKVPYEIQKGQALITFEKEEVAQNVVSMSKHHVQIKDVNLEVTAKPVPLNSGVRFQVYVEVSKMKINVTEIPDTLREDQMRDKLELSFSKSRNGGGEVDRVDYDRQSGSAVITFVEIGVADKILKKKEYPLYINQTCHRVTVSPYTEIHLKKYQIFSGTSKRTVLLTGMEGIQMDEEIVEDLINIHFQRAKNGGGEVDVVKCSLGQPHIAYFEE
Assay: affinity purification with mass spectrometry; immunoprecipitation of NMI from cell nuclear protein extracts with anti-NMI antibody, IgG as control; precipitated proteins identified by mass spectrometry

- binding: binds
Substance: YY1 (from UniProt P25490 1-414)
